Measured values as given in article PMC2927421, “Tyrosine-Phosphorylated Caveolin-1 Blocks Bacterial Uptake by Inducing Vav2-RhoA-Mediated Cytoskeletal Rearrangements” (PLoS Biology, 2010).
Results are given in words; binding and its absence hold for the method and conditions named. Binding seen in cells or lysates may run through a third protein. Some results given as binding are weak or reduced against the parent protein; the word gives no strength. For part of these data: Tags and fused reporters may be left off the sequences shown. One block for each binder: values may come before it.

Tests used:
[1] = biological target: T1, Full-length GFP-Vav2, P52735; test: co-IP; GFP-Vav2 or GFP precipitated with a GFP antibody, truncated Vav2 with a FLAG antibody, from lysates of transfected, pervanadate-treated ME-180 cells; precipitates probed for phospho-Tyr14-Cav1; conditions: remark: other sources report otherwise
T1 chain: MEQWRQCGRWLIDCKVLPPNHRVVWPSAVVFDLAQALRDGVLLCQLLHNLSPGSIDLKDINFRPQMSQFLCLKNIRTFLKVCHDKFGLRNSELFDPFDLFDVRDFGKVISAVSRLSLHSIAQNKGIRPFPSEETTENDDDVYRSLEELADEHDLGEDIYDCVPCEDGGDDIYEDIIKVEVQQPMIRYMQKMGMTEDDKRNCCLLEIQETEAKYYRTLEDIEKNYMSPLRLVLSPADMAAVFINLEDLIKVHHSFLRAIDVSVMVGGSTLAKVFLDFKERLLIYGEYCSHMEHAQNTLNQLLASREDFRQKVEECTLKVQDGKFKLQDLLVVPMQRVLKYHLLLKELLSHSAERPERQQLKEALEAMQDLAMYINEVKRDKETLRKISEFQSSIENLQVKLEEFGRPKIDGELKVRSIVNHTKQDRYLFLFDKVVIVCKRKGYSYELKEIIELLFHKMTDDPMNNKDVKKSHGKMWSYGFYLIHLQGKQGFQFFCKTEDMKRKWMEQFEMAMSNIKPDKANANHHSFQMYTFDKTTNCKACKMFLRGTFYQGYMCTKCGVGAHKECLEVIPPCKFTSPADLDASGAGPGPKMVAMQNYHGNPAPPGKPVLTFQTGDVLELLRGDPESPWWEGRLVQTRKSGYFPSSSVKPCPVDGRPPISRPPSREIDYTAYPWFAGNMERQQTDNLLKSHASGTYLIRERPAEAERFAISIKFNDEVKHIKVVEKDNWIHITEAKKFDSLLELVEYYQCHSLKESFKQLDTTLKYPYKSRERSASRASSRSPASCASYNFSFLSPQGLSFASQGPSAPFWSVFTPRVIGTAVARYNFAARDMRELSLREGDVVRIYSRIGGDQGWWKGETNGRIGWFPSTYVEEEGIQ

[2] = biological target: biotin-labeled Tyr14-Cav1 phosphopeptide (15-mer, residues 7-21 of Cav1, phosphorylated on Tyr14) (human) (UniProt Q03135); test: pull-down; biotinylated peptides (10 nmol) on streptavidin agarose beads, ~2 mg lysate of uninfected or P+GC-infected ME-180 cells, overnight at 4°C, 2 mM sodium orthovanadate in the lysis buffer; Western blot; only the target purified
[3] = biological target: T2, phospho-Tyr14-Cav1, full-length, endogenous, from pervanadate-treated ME-180 cells (human (endogenous in ME-180)), Q03135; test: co-IP; endogenous Cav1 immunoprecipitated with anti-Cav1 antibody and protein G-agarose from lysates of untreated or pervanadate-treated ME-180 cells; precipitates probed for Cav1, phospho-Tyr14-Cav1 and Vav2; conditions: remark: other sources report otherwise
T2 chain: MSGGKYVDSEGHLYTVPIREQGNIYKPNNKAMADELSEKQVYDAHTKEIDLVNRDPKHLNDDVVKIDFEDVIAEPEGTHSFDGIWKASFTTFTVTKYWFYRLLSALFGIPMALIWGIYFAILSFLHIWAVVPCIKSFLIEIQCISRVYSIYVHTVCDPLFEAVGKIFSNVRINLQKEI

binding [1]: binds
B1: phospho-Tyr14-Cav1, full-length, endogenous, from pervanadate-treated ME-180 cells, Q03135 1-178 (protein)
chain: T2 chain
modifications: here or on the partner: phosphotyrosine at 14

binding [2]: binds
B2: Phospholipase Cγ1 (endogenous, ME-180 cells) (protein, UniProt P19174 1-1290)
chain: MAGAASPCANGCGPGAPSDAEVLHLCRSLEVGTVMTLFYSKKSQRPERKTFQVKLETRQITWSRGADKIEGAIDIREIKEIRPGKTSRDFDRYQEDPAFRPDQSHCFVILYGMEFRLKTLSLQATSEDEVNMWIKGLTWLMEDTLQAPTPLQIERWLRKQFYSVDRNREDRISAKDLKNMLSQVNYRVPNMRFLRERLTDLEQRSGDITYGQFAQLYRSLMYSAQKTMDLPFLEASTLRAGERPELCRVSLPEFQQFLLDYQGELWAVDRLQVQEFMLSFLRDPLREIEEPYFFLDEFVTFLFSKENSVWNSQLDAVCPDTMNNPLSHYWISSSHNTYLTGDQFSSESSLEAYARCLRMGCRCIELDCWDGPDGMPVIYHGHTLTTKIKFSDVLHTIKEHAFVASEYPVILSIEDHCSIAQQRNMAQYFKKVLGDTLLTKPVEISADGLPSPNQLKRKILIKHKKLAEGSAYEEVPTSMMYSENDISNSIKNGILYLEDPVNHEWYPHYFVLTSSKIYYSEETSSDQGNEDEEEPKEVSSSTELHSNEKWFHGKLGAGRDGRHIAERLLTEYCIETGAPDGSFLVRESETFVGDYTLSFWRNGKVQHCRIHSRQDAGTPKFFLTDNLVFDSLYDLITHYQQVPLRCNEFEMRLSEPVPQTNAHESKEWYHASLTRAQAEHMLMRVPRDGAFLVRKRNEPNSYAISFRAEGKIKHCRVQQEGQTVMLGNSEFDSLVDLISYYEKHPLYRKMKLRYPINEEALEKIGTAEPDYGALYEGRNPGFYVEANPMPTFKCAVKALFDYKAQREDELTFIKSAIIQNVEKQEGGWWRGDYGGKKQLWFPSNYVEEMVNPVALEPEREHLDENSPLGDLLRGVLDVPACQIAIRPEGKNNRLFVFSISMASVAHWSLDVAADSQEELQDWVKKIREVAQTADARLTEGKIMERRKKIALELSELVVYCRPVPFDEEKIGTERACYRDMSSFPETKAEKYVNKAKGKKFLQYNRLQLSRIYPKGQRLDSSNYDPLPMWICGSQLVALNFQTPDKPMQMNQALFMTGRHCGYVLQPSTMRDEAFDPFDKSSLRGLEPCAISIEVLGARHLPKNGRGIVCPFVEIEVAGAEYDSTKQKTEFVVDNGLNPVWPAKPFHFQISNPEFAFLRFVVYEEDMFSDQNFLAQATFPVKGLKTGYRAVPLKNNYSEDLELASLLIKIDIFPAKENGDLSPFSGTSLRERGSDASGQLFHGRAREGSFESRYQQPFEDFRISQEHLADHFDSRERRAPRRTRVNGDNRL

binding [3]: binds
B3: Vav2 (endogenous, ME-180 cells), P52735 1-878 (protein)
chain: T1 chain
modifications: here or on the partner: phosphotyrosine at 14
